Experimental data as given in PubChem BioAssay AID1347076 (National Center for Advancing Translational Sciences (NCATS), 2019).
Among all 400,000 compounds or so, about 13,000 (3.2%) were called active. Inconclusive means that the source gave no clear call. Such entries were picked first, then a sample of the others. Calls follow the shape of the dose curve; as a rule, active = well fitted cell-killing curve with a large enough effect; inconclusive = small, poorly fitted or top-dose-only effect, or effect the other way; inactive = flat fitted curve, though single readings scatter. Potencies beside an inconclusive call are fits to weak or partial responses and may not hold up.

assay: qHTS assay for MDR1-selective chemotherapeutics: Primary screen using the drug-selected MDR subline cells KB-V1; conditions: KB-V1 MDR cells viability, CellTiter-Glo, 72 h; activity change, negative = cytotoxicity: at 46.1 µM (top of the series); also: nearly all actives have a fitted effect of over 60% in size
Outline: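 Following 72 h at 37 degrees C with compound, KB-V1 cell viability was read by CellTiter-Glo luminescence, medium being phenol-red-free DMEM plus 10% FBS; concentration-response parameters came from normalized, curve-fitted qHTS data.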
% is scaled to controls: 0 for no effect and ±100 for the full control effect; potency is read from the fitted curve at half-maximal effect.

Row | SMILES | Potency | activity change, negative = cytotoxicity
1 | COc1ccc(C(=O)C2CCCN(S(=O)(=O)c3ccc(C(C)=O)cc3)C2)c(C)c1 (stereo not drawn) | inconclusive: 29.1 µM [cytotoxic, partial curve, poor fit] | –
2 | CCN(CC(=O)Nc1cc(C)nn1-c1nc(C)cc(C)n1)Cc1ccccc1 | inconclusive: 29.1 µM [cytotoxic, single point] | –
3 | C=CCNC(=S)NNC(=O)c1cccn(Cc2ccc(Cl)c(Cl)c2)c1=O | active: 16.4 µM | –
4 | COC(=O)c1cc(N=Cc2c(O)c3ccccc3oc2=O)cc(C(=O)OC)c1 | inconclusive: 8.2 µM [rising, partial curve, poor fit] | –
5 | CCCCN(CCCC)S(=O)(=O)c1ccc(C(=O)Nc2nnc(CSC)o2)cc1 | inconclusive: 9.2 µM [cytotoxic, partial curve, poor fit] | –
6 | CC(NC1CCCC1)C(=O)Nc1ccccc1-c1ccccc1 (stereo not drawn) | active: 11.6 µM | –
7 | COc1ccc(N2C(=O)CSC2c2ccc(F)c(F)c2)cc1 (stereo not drawn) | – | inactive: 16%
8 | COc1ccc(OCCNC(=O)c2cc(C3CC3)nc3c2cnn3C(C)C)cc1 | active: 8.2 µM | –
9 | O=C1Nc2ccccc2-n2nnnc2C1N1CCCN(Cc2ccc(F)cc2)CC1 (stereo not drawn) | inconclusive: 11.6 µM [cytotoxic, partial curve, poor fit] | –
10 | O=C(c1cccs1)N1C[C@@H](n2cc(-c3ccc(F)cc3)nn2)[C@H](O)C[C@@H]1c1ccc(Cl)cc1 | inconclusive: 25.9 µM [cytotoxic, single point] | –
11 | CC(C)(C#CCN1CCCCC1)OCCOC(c1ccccc1)c1ccccc1 | inconclusive: 9.2 µM [cytotoxic, partial curve, poor fit] | –
12 | Cc1ccc(N2CCN(C(=O)NC3CCCCC3)CC2)c(C)c1 | inconclusive: 29.1 µM [cytotoxic, single point] | –
13 | Cc1ccc(S(=O)(=O)Nc2cccc3c2CCCC3)cc1 | inconclusive: 18.4 µM [cytotoxic, single point] | –
14 | O=C(NC(=S)Nc1cccc2cccnc12)c1cccs1 | inconclusive: 29.1 µM [cytotoxic, single point] | –
15 | CCCCN1CNC(=S)N(c2ccccc2OCC)C1 | – | inactive: -15%
16 | O=C1NCCN1c1ccccc1 | inconclusive: 29.1 µM [rising, single point] | –
17 | O=S1(=O)CC(N2CCN(CCO)CC2)CN1Cc1cn(Cc2cccc(C(F)(F)F)c2)nn1 (stereo not drawn) | – | inactive: -1.3%
18 | Cc1cc(C(=O)Nc2sc3c(c2C#N)CCC3)no1 | active: 16.4 µM | –
19 | COC(=O)c1ccc(COC(=O)CCNS(=O)(=O)c2ccc(C)c(C)c2)cc1 | – | inactive: 8.98%
20 | Cc1cccc(N2CCN(C(=O)c3ccc4nccnc4c3)CC2C)c1 (stereo not drawn) | – | inactive: -6.6%
21 | COc1cccc(C(=O)NCC2OCCc3ccccc32)c1 (stereo not drawn) | inconclusive: 7.31 µM [cytotoxic, partial curve, poor fit] | –
22 | CC(=NNC(=S)N1CCC1)c1ccccn1 | inconclusive: 0.0116 µM [cytotoxic, full curve, poor fit] | –
23 | CCn1nc(C)cc1C(=O)N1CCc2c([nH]c3ccccc23)C1c1cc(F)ccc1F (stereo not drawn) | inconclusive: 20.6 µM [cytotoxic, single point] | –

Row | SMILES | Potency | activity change, negative = cytotoxicity
24 | Cc1cccc(N2CCN(C(=S)NCCc3ccccc3)CC2)c1C | inconclusive: 29.1 µM [cytotoxic, single point] | –
25 | COc1ccc(-c2coc3c(C(=O)NCCN4CCOCC4)cccc23)c(C)c1 | inconclusive: 20.6 µM [cytotoxic, single point] | –
26 | CCOc1ccc(S(=O)(=O)Nc2cccc(C(=O)N3CCN(c4ccccn4)CC3)c2)cc1 | inconclusive: 18.4 µM [cytotoxic, partial curve, poor fit] | –
27 | Cc1c(NS(=O)(=O)c2cccc(C(=O)Nc3cccc(F)c3)c2)c(=O)n(-c2ccccc2)n1C | inconclusive: 16.4 µM [cytotoxic, single point] | –
28 | Cc1ccc(C(=O)c2cn(Cc3cccc(Cl)c3)c3nc(C)ccc3c2=O)cc1 | inconclusive: 2.31 µM [cytotoxic, full curve] | –
29 | COc1ccc(C(C)(O)c2nc(-c3cccc(NC(C)=O)c3)cs2)cc1 (stereo not drawn) | inconclusive: 23.1 µM [cytotoxic, single point] | –
30 | CCC1(c2ccc(Cl)cc2)NC(=O)N(CC(=O)NCc2ccc(F)cc2)C1=O (stereo not drawn) | inconclusive: 29.1 µM [cytotoxic, single point] | –
31 | CCN(CC)CCCNC(=S)N1CCC(c2nc3ccccc3[nH]2)CC1 | – | inactive: 4.83%
32 | O=C(Nc1ccccc1C(F)(F)F)C1CCN(C(=O)Cc2ccccc2)CC1 | inconclusive: 2.59 µM [cytotoxic, partial curve, poor fit] | –
33 | O=C(COc1coc(CN2CCN(c3ccccc3)CC2)cc1=O)NCC1CCCO1 (stereo not drawn) | inconclusive: 25.9 µM [rising, single point] | –
34 | CCOc1ccccc1N1CCN(Cc2cccc(OC)c2O)CC1 | inconclusive: 11.6 µM [cytotoxic, single point] | –
35 | O=C(NNC(=O)c1ccc([N+](=O)[O-])cc1C(=O)O)c1ccncc1 | inconclusive: 32.6 µM [rising, single point] | –
36 | C=CCn1c(SCC(=O)c2ccc(OC)cc2)nnc1-c1ccc2c(c1)OCO2 | inconclusive: 29.1 µM [cytotoxic, single point] | –
37 | O=C(Nc1ccc(F)cc1Cl)C1=COCCO1 | inconclusive: 20.6 µM [rising, single point] | –
38 | O=C(Nc1ccccc1N1CCN(C(=O)c2ccccc2)CC1)c1cccc(Cl)c1 | – | inactive: -8.15%
39 | O=C(c1ccccc1Cc1ccccc1)N1CCN(S(=O)(=O)c2ccc(F)cc2)CC1 | inconclusive: 29.1 µM [cytotoxic, single point] | –
40 | O=[N+]([O-])c1ccc2c(c1)/C(=N\O)c1ccccc1-2 | inconclusive: 0.58 µM [cytotoxic, full curve] | –
41 | COc1ccc(C(=O)NC(=S)Nc2ccccc2N2CCOCC2)cc1Br | active: 16.4 µM | –
42 | O=C(O)c1ccc(NS(=O)(=O)c2cccc3cccnc23)cc1 | – | inconclusive: 10%
43 | CSCc1ccc(C(=O)OCc2nc3ccccc3s2)o1 | inconclusive: 29.1 µM [rising, single point] | –
44 | Cc1cc(C(=O)OCC(=O)Nc2cccc(S(=O)(=O)N(C)C)c2)c(C)o1 | inconclusive: 23.1 µM [cytotoxic, single point] | –
45 | CCOc1ccc(-c2nc(Cn3c(=O)cc(C)c4c(C)nn(-c5ccccc5)c43)c(C)o2)cc1 | inconclusive: 18.4 µM [rising, single point] | –
46 | COc1ccc(CCNC(=O)CC(Cc2ccccc2)C(=O)O)cc1OC (stereo not drawn) | inconclusive: 20.6 µM [rising, single point] | –

Copied from above, entries 28 to 31
Row | SMILES | Potency | activity change, negative = cytotoxicity
28 | Cc1ccc(C(=O)c2cn(Cc3cccc(Cl)c3)c3nc(C)ccc3c2=O)cc1 | inconclusive: 2.31 µM [cytotoxic, full curve] | –
29 | COc1ccc(C(C)(O)c2nc(-c3cccc(NC(C)=O)c3)cs2)cc1 (stereo not drawn) | inconclusive: 23.1 µM [cytotoxic, single point] | –
30 | CCC1(c2ccc(Cl)cc2)NC(=O)N(CC(=O)NCc2ccc(F)cc2)C1=O (stereo not drawn) | inconclusive: 29.1 µM [cytotoxic, single point] | –
31 | CCN(CC)CCCNC(=S)N1CCC(c2nc3ccccc3[nH]2)CC1 | – | inactive: 4.83%

(next part)

Row | SMILES | Potency | activity change, negative = cytotoxicity
47 | CCOC(=O)/C(C#N)=C1/SC(CC)C(=O)N1c1ccc(Br)cc1 (stereo not drawn) | active: 8.2 µM | –
48 | Cc1nn(Cc2ccc(Cl)cc2Cl)c(C)c1NC(=O)CCl | active: 18.4 µM | –
50 | CCCn1c(SCC(=O)N2CCN(c3ccc(OC)cc3)CC2)nc2c1c(=O)n(C)c(=O)n2C | inconclusive: 18.4 µM [cytotoxic, single point] | –
51 | CC[C@@]1(C(=O)OC)N[C@H](CN(C)C(=O)Nc2ccc(F)cc2)[C@@H]2C(=O)N(C)C(=O)[C@@H]21 | inconclusive: 16.4 µM [rising, single point] | –
52 | COCCCN1C(=O)C(=O)/C(=C(/O)c2ccc(OC)cc2)C1c1cccc(OC)c1 (stereo not drawn) | inconclusive: 23.1 µM [rising, single point] | –
53 | c1cc2cc(CNc3nc(NCC4CC4)nc4ccsc34)ccc2o1 | inconclusive: 7.31 µM [cytotoxic, partial curve] | –
54 | COCCNC(=S)N(CCc1c(C)[nH]c2ccccc12)Cc1ccco1 | inconclusive: 23.1 µM [cytotoxic, single point] | –
55 | COc1cc(C)ccc1OCCSc1nc2ccc(NC(=O)c3ccco3)cc2s1 | inconclusive: 29.1 µM [cytotoxic, single point] | –
56 | O=C(Nc1ccccc1C(=O)N1CCOCC1)c1cccc(S(=O)(=O)N2CCCC2)c1 | active: 9.2 µM | –
57 | CC(=O)c1cccc(NC(=O)c2cc(Cl)sc2Cl)c1 | inconclusive: 20.6 µM [cytotoxic, single point] | –
58 | Cc1occc1-c1nnc(SCC(=O)c2ccc(F)cc2)o1 | inconclusive: 16.4 µM [cytotoxic, single point] | –
59 | O=C(CN(c1ccccn1)S(=O)(=O)c1ccc(F)cc1)Nc1ccc(F)cc1F | – | inactive: 16.1%
60 | COc1cc(NC(=O)COc2cc(O)c3c(c2)OC(C)(C)CC3=O)cc(OC)c1 | inconclusive: 29.1 µM [cytotoxic, single point] | –
61 | Cc1ccc2oc(=O)n(CCC(=O)Nc3ccc(N4CCOCC4)cc3)c2c1 | inconclusive: 16.4 µM [cytotoxic, single point] | –
62 | COc1ccc(/C=C2\SC(=O)N(CCNC(=O)C3CCN(S(=O)(=O)c4cccs4)CC3)C2=O)cc1 | active: 14.6 µM | –
63 | COc1cc(C)nc(N(Cc2ccccc2)S(=O)(=O)c2ccc(C)cc2)n1 | inconclusive: 13 µM [cytotoxic, partial curve] | –
64 | CCN(CC)C(=O)C1CCCN(Cc2sccc2C)C1 (stereo not drawn) | – | inactive: 5.06%
65 | CCCN(C(=O)CSc1nnc(-c2ccoc2C)n1N)C1CCS(=O)(=O)C1 (stereo not drawn) | – | inactive: 13.5%
66 | COc1ccc(-n2c(=O)c3c4c(sc3n3c(=S)[nH]nc23)CCCC4)cc1 | – | inactive: -11.2%
67 | COc1ccc(C(C)=O)cc1Cn1c(C)c(C(=O)NCc2ccc(C(F)(F)F)cc2)sc1=O | inconclusive: 20.6 µM [cytotoxic, single point] | –
68 | CCN(CC)C(=O)c1ccc(Nc2nnc(-c3ccc(O)cc3)c3ccccc23)cc1 | inconclusive: 6.51 µM [rising, partial curve] | –
